According to paper PMC4011676:

Target: HFSC-Atm (chicken Atm with the HFSC affinity tag) (chicken)
Assay: affinity purification with mass spectrometry; HFSC-Atm from DT40 lysate (0.5% NP-40, 150 mM NaCl, benzonase) on a gravity flow Strep-tagII column; SILAC against untagged WT cells mixed 1:1; samples before and after IR (10 Gy, 1 h recovery)

B1: MCM3 (chicken) (protein, UniProt Q5ZMN2 1-812)
chain: MAAPAGGLGDAELREAQRDYLDFLDDEEDQGVYHGKVRDMISDNQYRLLVNINDLRRRNEKRANRLLSNAFEELIAFQRALKDFVASVDATYAKQYEDFYIGLEGSFGSKHVSPRTLTACFLSCIVCVEGIVTKCSLIRPKVVRSVHYCPATKKTIERRYTDLTSLDAFPSSTVYPTKDEENNPLETEYGLSVYKDHQTISIQEMPEKAPAGQLPRSVDVILDDDLVDKVKPGDRIQVVGTYRCLPGKKGGYTSGTFRTILIACHIKQMSKDARPLYSANDVAKIKRFSKSRSKDIFNQLARSLAPSIHGHEFIKKALLCMLLGGVEKVLENGSRIRGDINILLIGDPSVAKSQLLRYVLGTAPRAVGTTGRGSSGVGLTAAVTTDQETGERRLEAGAMVLADRGVVCIDEFDKMSDIDRTAIHEVMEQGRVTIAKAGIHARLNSRCSVLAAANPVYGRYDQYKTPMENIGLQDSLLSRFDLLFIMLDQMDSEQDREISDHVLRMHRYRNPNEQDGDAMPLGSAVEILATDDPDFAQEEEQELQVYEKHDDLLHGPNRRKEKIVSMEFMRKYIHVAKMIKPVLTQESADYIAEEYSSLRSQNQMNSDIARTSPVTARTLETLIRLSTAHAKARMSKTVDLQDAEAALELVQFAYFKKVLEKEKKRKKQVEDDSETEKEEEEEETQPEKEGRKQRRKKARTEGEEESYDPYDFSDAEQEMPEVQAHTPKTPESSATGEAKKPELADPRLKAFKAALLEVFKSSHAQSVGLKNVMESINRDNPEPFSLAGVKVALAHMQDDNQIMVSDDIIFLI
binding: binds

Results are given in words; binding and its absence hold for the method and conditions named. In cells and extracts the contact can be indirect. Here binding means that the protein was enriched with, or labelled near, the bait; the list need not be complete.
